# Where a name gives a salt, the structure may show the parent alone. This is one part of the list. Repeats in this data set agree poorly, so a single value says little.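 Cells: ReNCell VM human fetal ventral-midbrain neural progenitors, differentiated mitogen-free. Blinded raters compared doublecortin-stained (early neurons) or tyrosine hydroxylase-stained (dopaminergic neurons) images with untreated wells, where 0 means no change. After repeats and both raters were averaged, compounds scoring 2 or above became hits for retesting.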
# What was measured:
# ReNCell VM [1] = experiment: neuronal differentiation score (DCX+ cell fraction vs untreated, manual image score) (score (-3 to 3)); higher = more neuronal differentiation; details: 2 uM, 2 weeks
# ReNCell VM [2] = experiment: dopaminergic neuron differentiation score (TH+ cell fraction vs untreated, manual image score) (score (0 to 3)); higher = more TH+ dopaminergic neuron differentiation; details: 2 uM, 4 weeks, BDNF 10 ng/ml + GDNF 10 ng/ml
structure (smiles),measurement,setting,value
CCC(NC(C)C)C(O)c1ccc(O)c(O)c1 (stereo not drawn) [Isotharine mesylate],neuronal differentiation score,ReNCell VM [1]; library: LOPAC,inactive: 0
same,dopaminergic neuron differentiation score,ReNCell VM [2]; library: LOPAC,inactive: 0
"Cc1cn2c(=O)c3ccccc3nc2n2c(=O)c3ccccc3nc12 [6-methyl-5,7a,13,13b-tetraaza-pentaphene-8,14-dione]",neuronal differentiation score,ReNCell VM [1]; library: Natural,inactive: 1
same,dopaminergic neuron differentiation score,ReNCell VM [2]; library: Natural,inactive: 0
Nc1nc2[nH]c(=O)cnc2c(=O)[nH]1 [Isoxanthopterin],neuronal differentiation score,ReNCell VM [1]; library: LOPAC,inactive: 0
same,dopaminergic neuron differentiation score,ReNCell VM [2]; library: LOPAC,inactive: 0
CC(O)(CC(=O)O)CC(=O)O,neuronal differentiation score,ReNCell VM [1]; library: Spectrum,inactive: 0
same,dopaminergic neuron differentiation score,ReNCell VM [2]; library: Spectrum,inactive: 0
CNS(=O)(=O)Cc1ccc2[nH]cc(CCN(C)C)c2c1,neuronal differentiation score,ReNCell VM [1]; library: Spectrum,inactive: 0
same,dopaminergic neuron differentiation score,ReNCell VM [2]; library: Spectrum,inactive: 0
CC(C)(CO)[C@@H](O)C(=O)NCCC(=O)NCCSSCCNC(=O)CCNC(=O)[C@H](O)C(C)(C)CO,neuronal differentiation score,ReNCell VM [1]; library: Spectrum,inactive: 0
same,dopaminergic neuron differentiation score,ReNCell VM [2]; library: Spectrum,inactive: 0
CN(C)c1ccc(C(=C2C=CC(=[N+](C)C)C=C2)c2ccc(N(C)C)cc2)cc1,neuronal differentiation score,ReNCell VM [1]; library: Spectrum,inactive: 0
same,dopaminergic neuron differentiation score,ReNCell VM [2]; library: Spectrum,inactive: 0
O=c1ccn([C@@H]2O[C@H](COP(=O)(O)OP(=O)(O)O)[C@@H](O)[C@H]2O)c(=O)[nH]1 [Uridine 5'-diphosphate sodium],neuronal differentiation score,ReNCell VM [1]; library: LOPAC,inactive: 0
same,dopaminergic neuron differentiation score,ReNCell VM [2]; library: LOPAC,inactive: 0
Cc1cccc(C)c1NC(=O)C(C)N (stereo not drawn),neuronal differentiation score,ReNCell VM [1]; library: Spectrum,inactive: 0
same,dopaminergic neuron differentiation score,ReNCell VM [2]; library: Spectrum,inactive: 0
O=c1cc(-c2ccccc2)oc2cc(O)c(O)c(O)c12 [Baicalein],neuronal differentiation score,ReNCell VM [1]; library: Tocriscreen,inactive: 0
same,dopaminergic neuron differentiation score,ReNCell VM [2]; library: Tocriscreen,inactive: 0
Clc1ccc(CO/N=C(\Cn2ccnc2)c2ccc(Cl)cc2Cl)c(Cl)c1 [Oxiconazole Nitrate],neuronal differentiation score,ReNCell VM [1]; library: Prestwick,inactive: 0
same,dopaminergic neuron differentiation score,ReNCell VM [2]; library: Prestwick,inactive: 1
C[C@@H]1CC[C@H]2C(C)(C)[C@H]3C[C@@]12CC[C@@]3(C)O,neuronal differentiation score,ReNCell VM [1]; library: Spectrum,inactive: 0
same,dopaminergic neuron differentiation score,ReNCell VM [2]; library: Spectrum,inactive: 0
CC(C)CCC[C@@H](C)[C@H]1CC[C@H]2[C@@H]3CC=C4CC(=O)CC[C@]4(C)[C@H]3CC[C@]12C,neuronal differentiation score,ReNCell VM [1]; library: Spectrum,inactive: 0
same,dopaminergic neuron differentiation score,ReNCell VM [2]; library: Spectrum,inactive: 0
CCCCCCCCCCC[C@@H](C[C@@H]1OC(=O)[C@H]1CCCCCC)OC(=O)[C@H](CC(C)C)NC=O,neuronal differentiation score,ReNCell VM [1]; library: Spectrum,inactive: 0
same,dopaminergic neuron differentiation score,ReNCell VM [2]; library: Spectrum,inactive: 0
CCCCCN(CCCCC)C(=O)C(CCC(=O)O)NC(=O)c1ccc(Cl)c(Cl)c1 (stereo not drawn),neuronal differentiation score,ReNCell VM [1]; library: Spectrum,inactive: 0
same,dopaminergic neuron differentiation score,ReNCell VM [2]; library: Spectrum,inactive: 0
O=C1c2c(O)cc(CO)cc2C(OC2OC(CO)C(O)C(O)C2O)c2cccc(OC3OC(CO)C(O)C(O)C3O)c21 (stereo not drawn) [CASANTHRANOL [cascaroside A shown]],neuronal differentiation score,ReNCell VM [1]; library: Spectrum,inactive: 1
same,dopaminergic neuron differentiation score,ReNCell VM [2]; library: Spectrum,inactive: 0
CC(=O)O[C@H]1C[C@@H]2CC[C@@H]3[C@H](CC[C@@]4(C)[C@H]3C[C@H]([N+]3(C)CCCCC3)[C@@H]4OC(C)=O)[C@@]2(C)C[C@@H]1N1CCCCC1,neuronal differentiation score,ReNCell VM [1]; library: Spectrum,inactive: 0
same,dopaminergic neuron differentiation score,ReNCell VM [2]; library: Spectrum,inactive: 0
COc1nc(C)nc(Cl)c1NC1=NCCN1 [Moxonidine],neuronal differentiation score,ReNCell VM [1]; library: Prestwick,inactive: 0
same,dopaminergic neuron differentiation score,ReNCell VM [2]; library: Prestwick,inactive: 0
Nc1ccc(C(=O)O)cc1,neuronal differentiation score,ReNCell VM [1]; library: Spectrum,inactive: 1
same,dopaminergic neuron differentiation score,ReNCell VM [2]; library: Spectrum,inactive: 0
"O=C(O)CCC(C(=O)O)N1C(=O)c2ccccc2C1=O [L-Glutamic acid, N-phthaloyl-]",neuronal differentiation score,ReNCell VM [1]; library: LOPAC,inactive: 0
same,dopaminergic neuron differentiation score,ReNCell VM [2]; library: LOPAC,inactive: 0
O=NN(CCCl)C(=O)NCCCl,neuronal differentiation score,ReNCell VM [1]; library: Spectrum,inactive: 0
same,dopaminergic neuron differentiation score,ReNCell VM [2]; library: Spectrum,inactive: 0
CC1(C)Oc2ccc(C#N)cc2[C@@H](N2CCCC2=O)[C@@H]1O [Levcromakalim],neuronal differentiation score,ReNCell VM [1]; library: Tocriscreen,inactive: 0
same,dopaminergic neuron differentiation score,ReNCell VM [2]; library: Tocriscreen,inactive: 0
COc1c2occc2c(OC)c2c(=O)cc(C)oc12,neuronal differentiation score,ReNCell VM [1]; library: Spectrum,inactive: 0
same,dopaminergic neuron differentiation score,ReNCell VM [2]; library: Spectrum,inactive: 0
CNCC[C@@H](Oc1ccccc1C)c1ccccc1,neuronal differentiation score,ReNCell VM [1]; library: Spectrum,inactive: 1
same,dopaminergic neuron differentiation score,ReNCell VM [2]; library: Spectrum,inactive: 0
CN(Cc1cc(Br)cc(Br)c1N)C1CCCCC1,neuronal differentiation score,ReNCell VM [1]; library: Spectrum,inactive: 0
same,dopaminergic neuron differentiation score,ReNCell VM [2]; library: Spectrum,inactive: 0
CC12CC(=O)C3=C(CCCC3=O)N1CCc1ccccc12 (stereo not drawn),neuronal differentiation score,ReNCell VM [1]; library: Natural,inactive: 0
same,dopaminergic neuron differentiation score,ReNCell VM [2]; library: Natural,inactive: 0
CC(C)(S)[C@@H](N)C(=O)O [Penicillamine],neuronal differentiation score,ReNCell VM [1]; library: Prestwick,inactive: 0
same,dopaminergic neuron differentiation score,ReNCell VM [2]; library: Prestwick,inactive: 0
COc1cc(OC)c(C(=O)CCCCN2CCC3(CC2)NC(=O)NC3=O)cc1NS(=O)(=O)c1ccc(C(F)(F)F)cc1,neuronal differentiation score,ReNCell VM [1]; library: Tocriscreen,inactive: 0
same,dopaminergic neuron differentiation score,ReNCell VM [2]; library: Tocriscreen,inactive: 0
CCC1NC(=O)c2cc(S(N)(=O)=O)c(Cl)cc2N1 (stereo not drawn) [Quinethazone],neuronal differentiation score,ReNCell VM [1]; library: Prestwick,inactive: 0
same,dopaminergic neuron differentiation score,ReNCell VM [2]; library: Prestwick,inactive: 0
N[C@@H](CC(=O)N1CCn2c(nnc2C(F)(F)F)C1)Cc1cc(F)c(F)cc1F,neuronal differentiation score,ReNCell VM [1]; library: Spectrum,inactive: 0
same,dopaminergic neuron differentiation score,ReNCell VM [2]; library: Spectrum,inactive: 0
Oc1ccc(-c2nc3cc(O)cc(Br)c3o2)cc1,neuronal differentiation score,ReNCell VM [1]; library: Tocriscreen,inactive: 0
same,dopaminergic neuron differentiation score,ReNCell VM [2]; library: Tocriscreen,inactive: 0
O=C(O)COC(=O)Cc1ccccc1Nc1c(Cl)cccc1Cl,neuronal differentiation score,ReNCell VM [1]; library: Spectrum,inactive: 0
same,dopaminergic neuron differentiation score,ReNCell VM [2]; library: Spectrum,inactive: 1
NC[C@H]1CC[C@H](C(=O)O)CC1,neuronal differentiation score,ReNCell VM [1]; library: Spectrum,inactive: 0
same,dopaminergic neuron differentiation score,ReNCell VM [2]; library: Spectrum,inactive: 0
CC(C)(C)NC[C@H](O)COc1ccccc1C1CCCC1 [Penbutolol sulfate],neuronal differentiation score,ReNCell VM [1]; library: Prestwick,inactive: 0
same,dopaminergic neuron differentiation score,ReNCell VM [2]; library: Prestwick,inactive: 0

# Random excerpt: three records from the list
structure (smiles),measurement,setting,value
O=c1ccn([C@@H]2O[C@H](COP(=O)(O)OP(=O)(O)O)[C@@H](O)[C@H]2O)c(=O)[nH]1 [Uridine 5'-diphosphate sodium],dopaminergic neuron differentiation score,ReNCell VM [2]; library: LOPAC,inactive: 0
same,neuronal differentiation score,ReNCell VM [1]; library: LOPAC,inactive: 0
Oc1ccc(-c2nc3cc(O)cc(Br)c3o2)cc1,dopaminergic neuron differentiation score,ReNCell VM [2]; library: Tocriscreen,inactive: 0

# — the supplement of paper PMC4635364
